Here are results for 1 substance from US20240191276 (published 2024).

This series in a line: general procedure: Fmoc solid-phase peptide synthesis; Rink Amide resin (GL-biochem, 0.65 mmol/g); DIC/Oxyma. The settings on record: conjugation step, HPLC peak area at 260 nm.

“H(Aib)EGTFTSDVSSYLEGQAAKEFIAWLVKGRGLPETGLE (SEQ ID NO: 16)” gave a conjugation yield of 23%.
